{
  "source": "patent US20100173332A1",
  "about": "“Method for the Fluorescent Detection of Nitroreductase Activity Using Nitro-Substituted Aromatic Compounds” (Auckland Uniservices Limited, priority 2006, published 2010)",
  "data": [
    {"assay": "Fluorescent emission of amine reporter molecules in phosphate buffer (multiplex suitability)", "format": "physicochemical", "details": "10 μM, 100 mM phosphate buffer pH 7.0", "units": {"fluorescent output at Ex/Em 295/370": "fluorescent units", "fluorescent output at Ex/Em 340/510": "fluorescent units", "fluorescent output at Ex/Em 440/540": "fluorescent units"}, "values": [
      {"smiles": "CN(C)CCNC(=O)c1cc(N)cc2c(=O)c3ccccc3[nH]c12", "note": "[Compound 18, 2-Amino-N-[2-(dimethylamino)ethyl]-9-oxo-9,10-dihydro-4-acridinecarboxamide]", "fluorescent output at Ex/Em 295/370": 0.78, "fluorescent output at Ex/Em 340/510": 12.0, "fluorescent output at Ex/Em 440/540": 347.9},
      {"smiles": "Nc1ccc2cn[nH]c2c1", "note": "[Compound 23, 6-aminoindazole]", "fluorescent output at Ex/Em 295/370": 683.3, "fluorescent output at Ex/Em 340/510": 1.2, "fluorescent output at Ex/Em 440/540": 0.05},
      {"smiles": "COC(=O)CCCNS(=O)(=O)c1ccc2cccc(N)c2c1", "note": "[Compound 22, Methyl 4-{[(8-amino-2-naphthyl)sulfonyl]amino}butanoate]", "fluorescent output at Ex/Em 295/370": 0.0, "fluorescent output at Ex/Em 340/510": 461.8, "fluorescent output at Ex/Em 440/540": 0.75}
    ]}
  ]
}
